Data source: PubChem BioAssay AID1259254 (NCATS, 2017)
Test: 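Finding genes that stop cells copying their DNA twice in one cycle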 (primary screen). Cells: human HCT116 colorectal cancer cells. Reagents: single siRNA against human genes. Timing: 3 days. Measured: 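Imaged Hoechst DNA stain sorts each cell into a cycle phase by DNA amount; per plate, G2 fraction set to 0% for non-targeting and 100% for GMNN siRNA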. Direction: G2 robust z-score: higher = more G2 cells, more excess DNA replication. Call rule: 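An siRNA counts as active if its G2 robust z-score lies at least 5 MADs above the screen median; here such calls match roughly 38% of GMNN control or more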.
The whole screen tested about 59,000 reagents; below is a part drawn at random. About 1,550 of them (2.6%) were called active. 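G2 share is only a proxy for re-replication; each gene was hit by three separate siRNAs, and active genes were retested.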 The numbers tell different reagents against one gene apart. Further read-outs or replicates are left out here. The record does not give: the amount of reagent.

G2 robust z-score, by target and reagent
HYOU1: #1 -0.727 inactive; #2 -0.618 inactive; #3 -0.534 inactive
ABCC12: #1 -0.805 inactive; #2 0.141 inactive; #3 -0.659 inactive
CRY2: #1 1.45 inactive; #2 -0.782 inactive; #3 -0.738 inactive
M6PR: #1 -1.18 inactive; #2 1.4 inactive; #3 0.258 inactive
SNCAIP: #1 -1.22 inactive; #2 -0.507 inactive; #3 -0.102 inactive
TRMT112P6: #1 -0.491 inactive; #2 1.3 inactive; #3 1.07 inactive
BLM: #1 0.843 inactive; #2 0.182 inactive; #3 -0.33 inactive
SRMS: #1 0.806 inactive; #2 -0.485 inactive; #3 -0.878 inactive
ADAMTSL4: #1 3.92 inactive; #2 0.126 inactive; #3 0.247 inactive
SMG9: #1 -0.0425 inactive; #2 -0.564 inactive; #3 -0.405 inactive
RASA2: #1 -0.669 inactive; #2 1.45 inactive; #3 -0.424 inactive
OR3A4P: #1 -0.978 inactive; #2 -0.658 inactive; #3 -0.669 inactive

A portion of the results above, as a working copy:
G2 robust z-score, by target and reagent
M6PR: #3 0.258 inactive
SNCAIP: #1 -1.22 inactive; #2 -0.507 inactive; #3 -0.102 inactive
TRMT112P6: #1 -0.491 inactive; #2 1.3 inactive; #3 1.07 inactive

Additional reagents:
G2 robust z-score, by target and reagent
ABCB10: #1 0.49 inactive; #2 -0.867 inactive; #3 0.231 inactive
CEP55: #1 -0.364 inactive; #2 1.74 inactive; #3 2.87 inactive
TOMM20L: #1 1 inactive; #2 0.08 inactive; #3 0.989 inactive
IFI35: #1 -0.419 inactive; #2 -0.241 inactive; #3 1.58 inactive
IQUB: #1 0.317 inactive; #2 1.39 inactive; #3 0.602 inactive
LMNTD1: #1 0.77 inactive; #2 -0.755 inactive; #3 0.51 inactive
APLP1: #1 0.314 inactive; #2 -0.248 inactive; #3 0.821 inactive
NFE2L2: #1 -0.621 inactive; #2 1.56 inactive; #3 4.93 inactive
GFRA2: #1 -0.286 inactive; #2 -0.171 inactive; #3 2.22 inactive
LOC441239: #1 -0.685 inactive; #2 -0.887 inactive; #3 -0.738 inactive
SSH3: #1 0.635 inactive; #2 1.62 inactive; #3 2.08 inactive
APBB1IP: #1 -1.43 inactive; #2 -0.505 inactive; #3 -0.314 inactive
VSIG10L2: #1 -0.132 inactive; #2 1.57 inactive; #3 1.62 inactive
COBL: #1 0.172 inactive; #2 0.929 inactive; #3 0.181 inactive
SLC30A9: #1 5.34 active; #2 -1.07 inactive; #3 -0.67 inactive
ZNF761: #1 0.538 inactive; #2 1.41 inactive; #3 1.73 inactive
RNF38: #1 -0.424 inactive; #2 0.514 inactive; #3 -0.298 inactive
